# Results from publication PMC7819943, “Rice protein-binding microarrays: a tool to detect cis-acting elements near promoter regions in rice”.
# Sequences of proteins named here, by UniProt entry; tags and fusion partners are left off.
# UniProt Q0JBA9, entry or part of it: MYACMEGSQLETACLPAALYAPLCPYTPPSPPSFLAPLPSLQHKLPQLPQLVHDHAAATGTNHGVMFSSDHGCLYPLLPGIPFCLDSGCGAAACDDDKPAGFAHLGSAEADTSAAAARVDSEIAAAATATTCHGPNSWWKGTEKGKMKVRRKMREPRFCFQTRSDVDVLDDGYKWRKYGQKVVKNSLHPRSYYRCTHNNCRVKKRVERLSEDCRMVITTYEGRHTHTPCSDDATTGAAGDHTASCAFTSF
# This is one part of the list.
# Target: OsWRKY34 (Oryza sativa, UniProt Q0JBA9 1-250)
# Experiment: protein-binding microarray (RPBM); PBS, 2% BSA, 51.3 ng/ul salmon testes DNA, 50 uM zinc acetate, 200 nM TF, 25 C, 1 h; high values mean tight binding
# Details: protein: recombinant; tags: N-terminal polyhistidine and DsRed monomer fusion (pET32a); label: CyDye5-dUTP incorporated in the synthesized complementary strand; 3' TTTTT single-stranded linker to array surface; dsDNA, one strand shown
# Procedure, shortened: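 Binding signal is reported as fluorescence intensity per feature (arbitrary units) from an Axon 4000B scanner. Incubation used 200 nM of each Ni–NTA-purified, N-terminally polyhistidine- and DsRed-fused transcription factor from E. coli BL21-CodonPlus on a double-stranded custom Agilent array for 1 h at 25 °C, with 50 µM zinc acetate in the buffer, followed by washing.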
row,Sequence,binding signal
1,TTTTCAGCGTCCAACTTTTTTAACCGTCTGTCCGTCTTATCGGAGTCACCTAGTGCAG,12200 fluorescence intensity (a.u.)
2,GTTTGTTTTCTCTGAATCTCTGCATCCCGCTCTGTCTATGCGGAGTCACCTAGTGCAG,10300 fluorescence intensity (a.u.)
3,TTTGAGTTGACTTCATTTTGAAAAATACAAACTTAGCTTTCGGAGTCACCTAGTGCAG,8210 fluorescence intensity (a.u.)
4,ACATAACGTCTCTTCTTCCGCTGACCACACGGTCCCACCCCGGAGTCACCTAGTGCAG,9200 fluorescence intensity (a.u.)
5,TCTTCTTCCAGACCGACTCGTTGGTCCTTTTATTGCCACTCGGAGTCACCTAGTGCAG,8760 fluorescence intensity (a.u.)
6,TCTCTTTGTTCTTTTCTTAAGCAAAGATTGTTTTTTTCCCCGGAGTCACCTAGTGCAG,8250 fluorescence intensity (a.u.)
7,GATATCACAACCTGACCCACATTAGTCACACGCACTCACACGGAGTCACCTAGTGCAG,11200 fluorescence intensity (a.u.)
8,CAATCGATCCCTTCCATTCTTCTTCCAACCGGCCAACGCGCGGAGTCACCTAGTGCAG,8070 fluorescence intensity (a.u.)
9,CTCCAACTGTGAGTTTCTGTTCAGGTCATCCCCTGATTTTCGGAGTCACCTAGTGCAG,8060 fluorescence intensity (a.u.)
10,GAATGACGAGCTGGTCACTGGTCACTGGTCAGCCGAGGAACGGAGTCACCTAGTGCAG,8120 fluorescence intensity (a.u.)
11,CTCTTGAACGTTGTCGCCCGCCGTTTCCCGCCGCTGTCTCCGGAGTCACCTAGTGCAG,18200 fluorescence intensity (a.u.)
12,GGGAAAGGCTGTAGGAATATATCACCACCTGTCATCATCACGGAGTCACCTAGTGCAG,9180 fluorescence intensity (a.u.)
13,CCCTACGTGCACACATCCAGCTCCATTATATAGCCATTTTCGGAGTCACCTAGTGCAG,8970 fluorescence intensity (a.u.)
14,CCTCACCCGCCTCGCCGTCTTCCACCCGTGCGTGCGTCCCCGGAGTCACCTAGTGCAG,8350 fluorescence intensity (a.u.)
15,TGCACGGCGCACCTGCGAATGATCTGGCCACCGCCACCGACGGAGTCACCTAGTGCAG,9020 fluorescence intensity (a.u.)
16,CCTTGCTGCCAGATCACTTAATTCTGCAACCTGGTAATATCGGAGTCACCTAGTGCAG,13100 fluorescence intensity (a.u.)
17,GCCTCTGTTCTTCCACTCATTATTATCATTTGCAGCTCCGCGGAGTCACCTAGTGCAG,10400 fluorescence intensity (a.u.)
18,AGCTGGATTACCCTTTATACATTTTACTTTAATCTCTTTGCGGAGTCACCTAGTGCAG,10900 fluorescence intensity (a.u.)
19,ATCCGTATCCAATCCGCGCCGTCCAATCGCTCGATCCAACCGGAGTCACCTAGTGCAG,8770 fluorescence intensity (a.u.)
20,TTTCCGGCTTTGTACAAACATGTTTCGTGATGCATACTTTCGGAGTCACCTAGTGCAG,11400 fluorescence intensity (a.u.)
21,TTGATACCGTTGACTTTTTAGCACATGTTTGACCATTCATCGGAGTCACCTAGTGCAG,39400 fluorescence intensity (a.u.)

# A portion taken from the entries so far, as a working copy:
row,Sequence,binding signal
15,TGCACGGCGCACCTGCGAATGATCTGGCCACCGCCACCGACGGAGTCACCTAGTGCAG,9020 fluorescence intensity (a.u.)
16,CCTTGCTGCCAGATCACTTAATTCTGCAACCTGGTAATATCGGAGTCACCTAGTGCAG,13100 fluorescence intensity (a.u.)
17,GCCTCTGTTCTTCCACTCATTATTATCATTTGCAGCTCCGCGGAGTCACCTAGTGCAG,10400 fluorescence intensity (a.u.)
18,AGCTGGATTACCCTTTATACATTTTACTTTAATCTCTTTGCGGAGTCACCTAGTGCAG,10900 fluorescence intensity (a.u.)
19,ATCCGTATCCAATCCGCGCCGTCCAATCGCTCGATCCAACCGGAGTCACCTAGTGCAG,8770 fluorescence intensity (a.u.)

# (continued)

row,Sequence,binding signal
1,GTTCTTTTTTATAAAGTTCTTGACCTGTGTTTCTTTTTTACGGAGTCACCTAGTGCAG,12000 fluorescence intensity (a.u.)
2,GATGTTGACTGGTGTGTACTGTTTGTTGTGGTGGCTGCAGCGGAGTCACCTAGTGCAG,9030 fluorescence intensity (a.u.)
3,TTAGTTCTTTAGTTGCAATTATGCGTGTTATACTTTAGCTCGGAGTCACCTAGTGCAG,8930 fluorescence intensity (a.u.)
4,CTCCTGGTCCCAACTTCGCCCCGCTGAAACACCGCGGCCGCGGAGTCACCTAGTGCAG,10200 fluorescence intensity (a.u.)
5,CGCTCATCTCATCGCTCTCGCCTCGACTCGCCTCCACGAACGGAGTCACCTAGTGCAG,8190 fluorescence intensity (a.u.)
6,CATTATTTGGGTTATATGCTGCGGATGAGAGATGGGCCGCCGGAGTCACCTAGTGCAG,8390 fluorescence intensity (a.u.)
7,TCTGCTTCTTCATCCTCGTGCTCTGCTTCTCTCTTCTTCCCGGAGTCACCTAGTGCAG,8980 fluorescence intensity (a.u.)
8,TGACCTCAAAATCCATGCATTTTAACAAAATATCACTTTCCGGAGTCACCTAGTGCAG,8300 fluorescence intensity (a.u.)
9,AGGGTTATAATTAGATGGGTAGTGGAGGTAGGTAAGAAAACGGAGTCACCTAGTGCAG,9550 fluorescence intensity (a.u.)
10,TATTTATCTAGTCTTATATGGGTTTCGGTATATTGAAATACGGAGTCACCTAGTGCAG,9060 fluorescence intensity (a.u.)
11,ACCCTCTCACCCTAGCTTAGTTTGCCACGACCTGGACCCACGGAGTCACCTAGTGCAG,10100 fluorescence intensity (a.u.)
12,AACAATCCCAATTCCGTAGACATTCACCCATTTCTTACCGCGGAGTCACCTAGTGCAG,9430 fluorescence intensity (a.u.)
13,TCCACATCCCTACTAGTATACATCATTGCTGCTGCTCTGCCGGAGTCACCTAGTGCAG,12000 fluorescence intensity (a.u.)
14,TATATCACACTCTTATTGTCTATACATTTTTTTTTGAATTCGGAGTCACCTAGTGCAG,8820 fluorescence intensity (a.u.)
15,TTCATCTTCGCTGTCCACCGCAGCGGCGGCGGCTTTGCATCGGAGTCACCTAGTGCAG,8270 fluorescence intensity (a.u.)
16,ATCCATCCCGCACGGTTGCACAGTTGCACTCGTTCGTTCGCGGAGTCACCTAGTGCAG,9340 fluorescence intensity (a.u.)
17,GTCGGAAGGGTTGCGGTTTCGTGCCTTGCTCTTGTTGGCGCGGAGTCACCTAGTGCAG,9260 fluorescence intensity (a.u.)
18,TAAATGACTTGTATGTTTTGTGGGCGGTTAATTTGACTTCCGGAGTCACCTAGTGCAG,10600 fluorescence intensity (a.u.)
19,TTTTTCTTAGGGCCGGCGCGGGTGGGACCGGGAGATTGGGCGGAGTCACCTAGTGCAG,8840 fluorescence intensity (a.u.)
20,TTATATATTGTTCCGGCCAGTGTATAATACTACGATCTATCGGAGTCACCTAGTGCAG,8710 fluorescence intensity (a.u.)
21,CCCGTAACACGAGTCCACCTCCCGTTCCCGCCACCACCATCGGAGTCACCTAGTGCAG,13300 fluorescence intensity (a.u.)

row,Sequence,binding signal
1,ACCGTACGTGGCGCCACCGCCGCGCCTGCCGCCTGGACACCGGAGTCACCTAGTGCAG,8680 fluorescence intensity (a.u.)
2,CATCTTCTCTCTATATATATTTATAGCTGGTTTAAAGTATCGGAGTCACCTAGTGCAG,9840 fluorescence intensity (a.u.)
3,CCCCAGCCGACTGCCTCACGCCGTCAATCTCGCCGTCACCCGGAGTCACCTAGTGCAG,8170 fluorescence intensity (a.u.)
4,CAGGCTATTGGCTTTACTTTTCATGACCCGGCAAGCCGAACGGAGTCACCTAGTGCAG,9010 fluorescence intensity (a.u.)
5,TATGACATTCCTCCTACCATGCATTCTCTTTCAGCTTTGTCGGAGTCACCTAGTGCAG,9000 fluorescence intensity (a.u.)
6,CCCGGCCTGTCTAGCGCCTCGACTCCATTCAACTCGCGCACGGAGTCACCTAGTGCAG,8620 fluorescence intensity (a.u.)
7,AAGGGTTCAAAACTGGGTCAGGGCTGAGTGAAATGCATAACGGAGTCACCTAGTGCAG,8070 fluorescence intensity (a.u.)
8,GTCCGCTGCTTTTCTCCCTTGTCGGTTATTTTACCTCTTCCGGAGTCACCTAGTGCAG,18900 fluorescence intensity (a.u.)
9,AATGACTTTTGCTAGTATACTAGCCTTTTTGCGAACTCTTCGGAGTCACCTAGTGCAG,9400 fluorescence intensity (a.u.)
10,AACTATTCCCTACTTCCGTTACAGCTGTCTCCTCCTCCTCCGGAGTCACCTAGTGCAG,8500 fluorescence intensity (a.u.)
11,TTTCTTTTTAATTTCCACGTTCTTATCGCCATCGACTCTACGGAGTCACCTAGTGCAG,8130 fluorescence intensity (a.u.)
12,TGTCACACGATGCGAGCGCACAAGCCTCACACTGTTTTGTCGGAGTCACCTAGTGCAG,8760 fluorescence intensity (a.u.)
13,GGTACGGTTTTTTGCTATTTTTTTCATGTGTTCGCATCACCGGAGTCACCTAGTGCAG,12500 fluorescence intensity (a.u.)
14,CACTCGATTTTCTGACTCAAATTTACAGTGCATTTTCTTACGGAGTCACCTAGTGCAG,9450 fluorescence intensity (a.u.)
15,ATGTGATTAAATGGAGGGTTTTCGGGGAGGGTTTTCGGGGCGGAGTCACCTAGTGCAG,24100 fluorescence intensity (a.u.)
16,CGGACGCCTTTCACCCTTTCCGGCTTTCCCCACTGGTTCTCGGAGTCACCTAGTGCAG,9540 fluorescence intensity (a.u.)
17,TCCGGTCTCCAACTCTCCGCTGCCAGCGCCACCACCAACACGGAGTCACCTAGTGCAG,12300 fluorescence intensity (a.u.)
18,ACGCATCGCGTTCGGGAATCTTTCCTCGTTTTCTCCCCTTCGGAGTCACCTAGTGCAG,8490 fluorescence intensity (a.u.)
19,GTCCCATCACCTTATTTCTCATTTTGATTTACTTTTATCTCGGAGTCACCTAGTGCAG,9330 fluorescence intensity (a.u.)
20,CCGTTGCTTTTTGTGTGTGTGTGTGTGTGTGTACAAAATCCGGAGTCACCTAGTGCAG,10800 fluorescence intensity (a.u.)
21,ATTGCTTACGTTTTTTCTCTCCTTTCCCATTTTTCGTCTTCGGAGTCACCTAGTGCAG,11700 fluorescence intensity (a.u.)

row,Sequence,binding signal
1,GACGCCCACACCGGCTCCGATATCTTCCGCGACTGCGTCCCGGAGTCACCTAGTGCAG,8630 fluorescence intensity (a.u.)
2,CATTCATTTCCCTTGACCGTTGTTGCCTTGCGCCACTGCGCGGAGTCACCTAGTGCAG,9620 fluorescence intensity (a.u.)
3,TGTATAGCTAATATATATGCTACTCTCTTTTTTATTTTTTCGGAGTCACCTAGTGCAG,10100 fluorescence intensity (a.u.)
4,CCTCTCCGTCCCAAGCCAGTTTGCCGCTCTCCGGCTCCTCCGGAGTCACCTAGTGCAG,9990 fluorescence intensity (a.u.)
5,AGTCAAATTTGTTTTTTTTCGTTGCAACTTGTATAATTTACGGAGTCACCTAGTGCAG,9430 fluorescence intensity (a.u.)
6,TAATGCTTAGCTGTTTCTTTTTCGGTTTGTCGTGATTTCACGGAGTCACCTAGTGCAG,11600 fluorescence intensity (a.u.)
7,TACTCGTCGTCATCCTCACCGTCTCTAATACATACTTCCCCGGAGTCACCTAGTGCAG,8930 fluorescence intensity (a.u.)
8,CCGATTCCCAACCAACCACGCGTCCGGTACCCGAGCCACTCGGAGTCACCTAGTGCAG,11000 fluorescence intensity (a.u.)
9,ATAACTTTAGCCAGCAGGTTGGTAAGGGTGGGTTTGGAGCCGGAGTCACCTAGTGCAG,11700 fluorescence intensity (a.u.)
10,TGGAGGAGAATCTTGTTGTGGCCTCTTCATTTTTTTTTCCCGGAGTCACCTAGTGCAG,8520 fluorescence intensity (a.u.)
11,AACCAGCTAGTCAGTCAGTCCTACCAAATCATCCGTGCTCCGGAGTCACCTAGTGCAG,8050 fluorescence intensity (a.u.)
12,GTTCTTTATGGGCGTCCTCTTTGCCTGTTTTGCTGGGTGACGGAGTCACCTAGTGCAG,9570 fluorescence intensity (a.u.)
13,CGAGAGGCCTTTTCTACGGTTTCAGTGCTCCGCTATATAGCGGAGTCACCTAGTGCAG,9560 fluorescence intensity (a.u.)
14,CCTCGGTCCATCAAAGTAGCCCATCTACCGATCACACCTGCGGAGTCACCTAGTGCAG,9370 fluorescence intensity (a.u.)
15,GGATTCTTTTCAGTTTCTTGTTTATTTAGTTGTTTCAGCTCGGAGTCACCTAGTGCAG,8380 fluorescence intensity (a.u.)
16,ACTAGAGTTGGAGTTGGAGTTGGGAGCTGGGAGTTGGAGTCGGAGTCACCTAGTGCAG,8570 fluorescence intensity (a.u.)
17,CTCCAGCTCTTTTGTAGCTTCTTCATACATAGATCCACAACGGAGTCACCTAGTGCAG,9290 fluorescence intensity (a.u.)
18,TGATCTCTTCTTTTTGCTCGCTGCAGGTGGGTCCCCAGCTCGGAGTCACCTAGTGCAG,8100 fluorescence intensity (a.u.)
19,ACCTCTCTCCTCCGCGCCGCCGACGAACCACCGCCGCCGACGGAGTCACCTAGTGCAG,9580 fluorescence intensity (a.u.)
20,TAGTACAATGGGTGCCCTCAACGGAATAAACCGCTATACCCGGAGTCACCTAGTGCAG,37000 fluorescence intensity (a.u.)
21,CGCCTCTGCAACTTCTCTTGTGTTTCTCTGAACTTGCCATCGGAGTCACCTAGTGCAG,9710 fluorescence intensity (a.u.)
